Experimental findings from article PMC10627786 are described below.

Chains of the proteins cited; added tags and fusions are not shown.
UniProt Q14318: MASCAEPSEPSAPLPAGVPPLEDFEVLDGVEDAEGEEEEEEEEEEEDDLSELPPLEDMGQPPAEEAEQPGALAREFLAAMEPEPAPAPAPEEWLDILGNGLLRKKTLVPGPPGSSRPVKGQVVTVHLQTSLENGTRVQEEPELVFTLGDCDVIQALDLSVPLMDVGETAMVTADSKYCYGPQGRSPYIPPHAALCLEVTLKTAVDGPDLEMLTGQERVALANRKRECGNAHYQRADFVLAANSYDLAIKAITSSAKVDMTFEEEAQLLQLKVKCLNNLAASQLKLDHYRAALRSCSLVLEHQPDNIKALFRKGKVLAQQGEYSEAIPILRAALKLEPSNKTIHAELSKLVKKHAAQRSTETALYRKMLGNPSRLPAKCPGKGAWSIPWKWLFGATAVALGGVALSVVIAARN
UniProt P51648: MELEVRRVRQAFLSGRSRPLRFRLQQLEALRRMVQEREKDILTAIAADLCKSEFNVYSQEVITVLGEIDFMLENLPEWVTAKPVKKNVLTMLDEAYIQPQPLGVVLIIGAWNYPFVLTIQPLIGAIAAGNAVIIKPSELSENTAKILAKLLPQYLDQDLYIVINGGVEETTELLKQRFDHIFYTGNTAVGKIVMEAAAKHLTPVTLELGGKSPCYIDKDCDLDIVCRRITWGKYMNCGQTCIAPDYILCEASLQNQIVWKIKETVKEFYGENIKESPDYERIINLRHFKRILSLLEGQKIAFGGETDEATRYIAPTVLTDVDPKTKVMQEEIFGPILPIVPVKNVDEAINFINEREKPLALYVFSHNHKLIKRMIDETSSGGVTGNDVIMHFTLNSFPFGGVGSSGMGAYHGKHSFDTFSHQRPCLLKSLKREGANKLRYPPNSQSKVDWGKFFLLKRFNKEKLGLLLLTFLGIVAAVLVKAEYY

Results are given in words; binding and its absence hold for the method and conditions named. Binding seen in cells or lysates may run through a third protein. These calls come from enrichment with a bait or labelling near it, and not all partners need be listed. Tags and fused reporters may be left off the sequences shown.

In assay [1] the target is T1, ESYT1 fused with BirA*-FLAG (BioID bait) (human) (UniProt Q9BSJ8).
T1 sequence: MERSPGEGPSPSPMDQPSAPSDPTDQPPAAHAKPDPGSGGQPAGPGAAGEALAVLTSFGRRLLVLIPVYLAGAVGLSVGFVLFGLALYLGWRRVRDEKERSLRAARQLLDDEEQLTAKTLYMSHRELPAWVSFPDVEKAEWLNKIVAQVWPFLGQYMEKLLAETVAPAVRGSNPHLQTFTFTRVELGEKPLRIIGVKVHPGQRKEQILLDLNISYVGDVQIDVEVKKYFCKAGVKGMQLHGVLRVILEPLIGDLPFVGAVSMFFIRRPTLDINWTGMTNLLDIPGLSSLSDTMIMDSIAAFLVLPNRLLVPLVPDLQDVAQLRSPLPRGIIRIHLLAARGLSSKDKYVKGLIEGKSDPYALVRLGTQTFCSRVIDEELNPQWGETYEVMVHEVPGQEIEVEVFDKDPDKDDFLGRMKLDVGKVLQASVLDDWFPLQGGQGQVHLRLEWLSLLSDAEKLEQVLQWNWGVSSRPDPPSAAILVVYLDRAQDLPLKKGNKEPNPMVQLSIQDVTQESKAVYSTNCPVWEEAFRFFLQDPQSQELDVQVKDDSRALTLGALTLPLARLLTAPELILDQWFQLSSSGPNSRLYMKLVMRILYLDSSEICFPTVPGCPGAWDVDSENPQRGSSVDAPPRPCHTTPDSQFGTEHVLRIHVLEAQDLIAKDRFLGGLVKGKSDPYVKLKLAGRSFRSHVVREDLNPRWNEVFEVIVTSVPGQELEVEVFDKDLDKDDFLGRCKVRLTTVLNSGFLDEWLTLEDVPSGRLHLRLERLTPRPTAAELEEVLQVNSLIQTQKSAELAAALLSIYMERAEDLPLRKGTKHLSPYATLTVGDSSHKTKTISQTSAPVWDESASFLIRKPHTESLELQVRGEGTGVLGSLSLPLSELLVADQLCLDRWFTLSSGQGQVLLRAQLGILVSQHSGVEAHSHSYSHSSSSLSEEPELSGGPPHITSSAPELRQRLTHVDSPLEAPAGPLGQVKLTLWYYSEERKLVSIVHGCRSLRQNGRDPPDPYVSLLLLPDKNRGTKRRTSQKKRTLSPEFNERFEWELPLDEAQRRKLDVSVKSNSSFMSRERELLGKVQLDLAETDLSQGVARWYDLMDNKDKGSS
Nature of the assay: proximity labelling; BioID in stable inducible Flp-In T-REx 293 cells expressing BirA*-FLAG baits; mass spectrometry of biotinylated preys; SAINTexpress, two biological replicates per bait, 50 negative control runs, BFDR threshold 1%.

Assay [2] deals with T2, ESYT2 fused with BirA*-FLAG (BioID bait) (human) (UniProt A0FGR8).
T2 sequence: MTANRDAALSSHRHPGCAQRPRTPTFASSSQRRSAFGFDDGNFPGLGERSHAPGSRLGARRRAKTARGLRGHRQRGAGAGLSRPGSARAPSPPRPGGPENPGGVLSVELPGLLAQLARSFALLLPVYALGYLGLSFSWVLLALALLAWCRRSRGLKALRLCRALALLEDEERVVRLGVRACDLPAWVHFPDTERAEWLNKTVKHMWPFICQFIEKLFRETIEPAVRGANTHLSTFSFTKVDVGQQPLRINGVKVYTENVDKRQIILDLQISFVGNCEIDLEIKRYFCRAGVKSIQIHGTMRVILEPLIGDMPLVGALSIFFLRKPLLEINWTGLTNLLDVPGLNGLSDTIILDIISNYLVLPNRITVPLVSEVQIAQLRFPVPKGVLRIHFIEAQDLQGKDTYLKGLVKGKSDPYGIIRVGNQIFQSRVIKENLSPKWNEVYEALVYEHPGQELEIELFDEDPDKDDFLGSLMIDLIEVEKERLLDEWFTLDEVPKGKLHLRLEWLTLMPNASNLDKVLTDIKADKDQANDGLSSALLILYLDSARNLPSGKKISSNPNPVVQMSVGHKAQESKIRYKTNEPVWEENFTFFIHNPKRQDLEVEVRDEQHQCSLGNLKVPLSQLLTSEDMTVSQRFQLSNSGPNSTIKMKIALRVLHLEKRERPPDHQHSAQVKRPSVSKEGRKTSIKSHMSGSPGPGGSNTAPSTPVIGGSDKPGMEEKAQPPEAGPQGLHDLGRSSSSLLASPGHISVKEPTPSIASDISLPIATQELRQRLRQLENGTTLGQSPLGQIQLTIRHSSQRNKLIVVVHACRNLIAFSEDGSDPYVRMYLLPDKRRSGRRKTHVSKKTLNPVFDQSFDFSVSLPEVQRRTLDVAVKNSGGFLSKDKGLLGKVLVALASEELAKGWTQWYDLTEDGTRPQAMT
The assay is described as above.

Take FKBP8 (from UniProt Q14318 1-412): the binding entry in assay [1] and in assay [2] was “binds” each time.

For ALDH3A2 (from UniProt P51648 1-485), the binding entry in assay [1] and in assay [2] was “binds” each time.
